Test [1] addresses c-Myc phosphorylated at threonine 58 (human (endogenous in SH-SY5Y and SK-N-BE(2))) (UniProt P01106). In words: co-IP; endogenous proteins in SH-SY5Y and SK-N-BE(2) cells, western blot, IgG as negative control; also cells stably transfected with sh-Scb, sh-LMNA #1 or #2, and SH-SY5Y cells treated with lobeline, prochlorperazine, sulphaphenazole or trifluoperazine (20 umol/L, 24 h). Background: Immunoblotting shows a protein as a band on a membrane.

Sequences of proteins named here, by UniProt entry; tags and fusion partners are left off. A change or cut given only in a name is not applied to a line headed by its entry. A line that says so, or that is headed by a name, gives the form on record, which may keep a tag or linker.
UniProt P01106: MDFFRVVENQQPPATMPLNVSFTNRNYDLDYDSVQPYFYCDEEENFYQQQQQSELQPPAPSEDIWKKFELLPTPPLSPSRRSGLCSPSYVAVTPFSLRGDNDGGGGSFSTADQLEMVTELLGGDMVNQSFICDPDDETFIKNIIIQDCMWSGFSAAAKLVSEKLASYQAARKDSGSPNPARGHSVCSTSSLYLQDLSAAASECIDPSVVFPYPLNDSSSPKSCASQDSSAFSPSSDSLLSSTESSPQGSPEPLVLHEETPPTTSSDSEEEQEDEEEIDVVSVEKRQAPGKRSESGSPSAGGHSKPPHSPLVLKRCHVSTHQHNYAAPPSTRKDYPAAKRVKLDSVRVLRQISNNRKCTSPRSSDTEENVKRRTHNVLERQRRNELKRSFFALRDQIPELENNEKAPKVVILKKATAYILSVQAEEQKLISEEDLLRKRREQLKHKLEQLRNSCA
UniProt P12956: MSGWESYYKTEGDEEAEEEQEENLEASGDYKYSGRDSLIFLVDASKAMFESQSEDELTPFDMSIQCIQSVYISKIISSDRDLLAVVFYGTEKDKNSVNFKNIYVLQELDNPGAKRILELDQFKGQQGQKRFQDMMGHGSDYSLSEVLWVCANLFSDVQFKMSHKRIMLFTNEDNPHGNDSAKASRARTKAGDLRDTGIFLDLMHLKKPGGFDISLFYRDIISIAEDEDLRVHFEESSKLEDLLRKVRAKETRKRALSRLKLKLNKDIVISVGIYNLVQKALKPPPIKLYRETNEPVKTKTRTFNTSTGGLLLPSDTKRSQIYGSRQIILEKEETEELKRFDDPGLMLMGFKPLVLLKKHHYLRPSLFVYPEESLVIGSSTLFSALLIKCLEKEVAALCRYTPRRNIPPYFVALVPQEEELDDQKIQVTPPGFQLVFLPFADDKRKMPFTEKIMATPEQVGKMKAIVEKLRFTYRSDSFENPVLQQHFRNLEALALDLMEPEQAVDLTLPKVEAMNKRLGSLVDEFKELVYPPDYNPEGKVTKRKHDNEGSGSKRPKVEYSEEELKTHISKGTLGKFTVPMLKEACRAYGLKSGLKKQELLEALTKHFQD
UniProt Q92841: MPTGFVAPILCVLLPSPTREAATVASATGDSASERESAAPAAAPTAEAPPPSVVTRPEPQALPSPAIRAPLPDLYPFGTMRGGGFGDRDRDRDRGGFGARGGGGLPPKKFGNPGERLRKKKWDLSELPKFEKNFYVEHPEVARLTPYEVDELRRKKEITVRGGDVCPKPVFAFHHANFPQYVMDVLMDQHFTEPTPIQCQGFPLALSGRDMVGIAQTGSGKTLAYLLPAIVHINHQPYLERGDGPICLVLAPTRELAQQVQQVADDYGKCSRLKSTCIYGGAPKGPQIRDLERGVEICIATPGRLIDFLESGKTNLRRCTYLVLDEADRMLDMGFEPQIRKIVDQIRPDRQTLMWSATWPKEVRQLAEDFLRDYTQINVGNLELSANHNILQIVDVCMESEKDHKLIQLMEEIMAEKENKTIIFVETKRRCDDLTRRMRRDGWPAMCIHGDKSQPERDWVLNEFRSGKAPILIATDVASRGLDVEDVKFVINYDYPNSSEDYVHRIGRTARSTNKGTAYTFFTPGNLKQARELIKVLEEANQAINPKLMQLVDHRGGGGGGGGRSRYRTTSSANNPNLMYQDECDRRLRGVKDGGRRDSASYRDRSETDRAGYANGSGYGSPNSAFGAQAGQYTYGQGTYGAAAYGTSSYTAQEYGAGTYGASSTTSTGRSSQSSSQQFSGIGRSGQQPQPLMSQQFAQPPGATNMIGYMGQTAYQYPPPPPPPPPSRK
lamin C (LMNC), BiFC construct (P02545-2, form named): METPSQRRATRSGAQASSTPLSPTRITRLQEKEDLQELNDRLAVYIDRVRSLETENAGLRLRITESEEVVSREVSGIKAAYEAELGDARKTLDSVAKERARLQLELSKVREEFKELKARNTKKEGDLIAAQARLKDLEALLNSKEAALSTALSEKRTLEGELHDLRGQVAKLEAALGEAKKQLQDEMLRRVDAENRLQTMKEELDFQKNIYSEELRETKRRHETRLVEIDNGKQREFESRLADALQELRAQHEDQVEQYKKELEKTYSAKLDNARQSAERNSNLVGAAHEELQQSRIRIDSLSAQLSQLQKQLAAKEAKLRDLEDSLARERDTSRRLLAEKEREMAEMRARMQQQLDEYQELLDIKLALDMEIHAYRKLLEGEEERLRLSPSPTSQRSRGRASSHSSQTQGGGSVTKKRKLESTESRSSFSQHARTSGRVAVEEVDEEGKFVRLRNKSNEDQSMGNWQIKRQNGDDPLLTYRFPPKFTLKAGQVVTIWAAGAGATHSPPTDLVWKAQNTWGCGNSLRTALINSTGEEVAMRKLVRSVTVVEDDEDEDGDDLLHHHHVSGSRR

Test [2] addresses c-Myc phosphorylated at serine 62 (human (endogenous in SH-SY5Y and SK-N-BE(2))) (UniProt P01106). The test is described as above.
The target of test [3] is c-Myc-VN173 (pBiFC-c-Myc-VN173) (human) (UniProt P01106). Description: split reporter; BiFC in SK-N-BE(2) cells co-transfected with pBiFC-VN173 and pBiFC-VC155 constructs for 24 h, confocal microscopy; also cells treated with chemicals (20 umol/L, 24 h).

These are yes or no findings as the source states them, for the method shown. Binding seen in cells or lysates may run through a third protein.

On to “X-ray repair cross complementing 6 (XRCC6) (from UniProt P12956 1-609)”, for which the binding entry in test [1] and in test [2] was “no binding” in each case.
Regarding “DEAD-box helicase 17 (DDX17) (from UniProt Q92841 1-729)”, the binding result in test [1] and in test [2] was “no binding” each time.
With “lamin C (LMNC), BiFC construct (from UniProt P02545-2 1-572)”, the binding entry in test [3] was “no binding”.

For the origin of these results see article PMC11106511.
